Test results reported in article PMC7819943, “Rice protein-binding microarrays: a tool to detect cis-acting elements near promoter regions in rice”.
The other results are listed elsewhere or left out.

By UniProt entry, the sequences of proteins in these tests, tags left out.
UniProt Q0JBA9, entry or part of it: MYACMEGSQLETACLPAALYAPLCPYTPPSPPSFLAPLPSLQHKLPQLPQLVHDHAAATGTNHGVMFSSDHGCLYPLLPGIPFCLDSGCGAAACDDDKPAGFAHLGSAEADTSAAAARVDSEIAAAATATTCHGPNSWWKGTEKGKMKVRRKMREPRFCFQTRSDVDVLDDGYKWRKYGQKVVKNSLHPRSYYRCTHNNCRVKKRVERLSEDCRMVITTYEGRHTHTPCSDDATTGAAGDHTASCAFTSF

What follows are sequences tested against OsWRKY34 (Oryza sativa, UniProt Q0JBA9 1-250) (assay: protein-binding microarray (RPBM); PBS, 2% BSA, 51.3 ng/ul salmon testes DNA, 50 uM zinc acetate, 200 nM TF, 25 C, 1 h; high values mean tight binding). Conditions: protein: recombinant; tags: N-terminal polyhistidine and DsRed monomer fusion (pET32a); label: CyDye5-dUTP incorporated in the synthesized complementary strand; 3' TTTTT single-stranded linker to array surface; dsDNA, one strand shown.
Summary of the method: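 Binding signal is reported as fluorescence intensity per feature (arbitrary units) from an Axon 4000B scanner. Incubation used 200 nM of each Ni–NTA-purified, N-terminally polyhistidine- and DsRed-fused transcription factor from E. coli BL21-CodonPlus on a double-stranded custom Agilent array for 1 h at 25 °C, with 50 µM zinc acetate in the buffer, followed by washing.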

Sequence	binding signal
CTTCTATCATCAACGACAAATCTCCCGTTGTCTTGTCTTCCGGAGTCACCTAGTGCAG	9520 fluorescence intensity (a.u.)
AACAATTATATTTTATTCTCTTATGTCACGCCTTAAGCTTCGGAGTCACCTAGTGCAG	9460 fluorescence intensity (a.u.)
ATATTGCAAGCCCAAAAAGCCCATCTAACCTATCATATATCGGAGTCACCTAGTGCAG	8520 fluorescence intensity (a.u.)
TTGTGTCCTTTTCGCCTTCCTTCGCATGCACCAGACAAGTCGGAGTCACCTAGTGCAG	9280 fluorescence intensity (a.u.)
ACTTGTTCTTCGATCGTCTTCATCTCGGATAGCGCCTGTCCGGAGTCACCTAGTGCAG	8900 fluorescence intensity (a.u.)
TTTGGCGCGCCTAGTATTTATAGCCTGTATACAACACTTACGGAGTCACCTAGTGCAG	9400 fluorescence intensity (a.u.)
TCTGTATTAGCGTTCGGTTGTTTTATTTGACTTTCCAAATCGGAGTCACCTAGTGCAG	8360 fluorescence intensity (a.u.)
AGTTTCCACTGATCTCCAGCGCTTTTTGGATCGACGGCGACGGAGTCACCTAGTGCAG	8480 fluorescence intensity (a.u.)
TCATGTTGTCTATTGCTGTTCTTGTTCCCATTTGCACGTTCGGAGTCACCTAGTGCAG	11700 fluorescence intensity (a.u.)
ACCACGCGCCGCCCAAAACCTCCGCCGCGTTTCGCACCACCGGAGTCACCTAGTGCAG	9630 fluorescence intensity (a.u.)
CTACTTCGAGCATCGCCGCCGCGTTTCCCAGCTGCCACTGCGGAGTCACCTAGTGCAG	9910 fluorescence intensity (a.u.)
GCGTGTGTATATATTGGTGTGGAGGAGGAGGAGAAAGGGGCGGAGTCACCTAGTGCAG	8500 fluorescence intensity (a.u.)
CAGCAGCCGCCTCGCATTCTCACTTGCGATCCAAAATTAACGGAGTCACCTAGTGCAG	8280 fluorescence intensity (a.u.)
CTCGCTGATTTCGCTCTTTCCATATTCCCCAAGTCAAAAACGGAGTCACCTAGTGCAG	13800 fluorescence intensity (a.u.)
AAACTTTTCTACACACATAAACTCCTAACTTTTTTTTTCCCGGAGTCACCTAGTGCAG	8670 fluorescence intensity (a.u.)
CCGAGATTTCTTACTCTGAGGCTTTTACCGTTTCATGTCACGGAGTCACCTAGTGCAG	8360 fluorescence intensity (a.u.)
TGTATTGTCATCGTGTAATAGTGCGTGTTTCTTCTAGTTCCGGAGTCACCTAGTGCAG	10500 fluorescence intensity (a.u.)
CTTACATCTAGTACCGGACGATTTTTATTTATGGGCAATTCGGAGTCACCTAGTGCAG	8200 fluorescence intensity (a.u.)
ACATATTTCAATGTGTATCTTCACTGTGTTTCATAATTTTCGGAGTCACCTAGTGCAG	8950 fluorescence intensity (a.u.)
TCGCCACTGCAGATCTTCTCTTTTAACTCCGTCGAATTCACGGAGTCACCTAGTGCAG	8850 fluorescence intensity (a.u.)
CCAACGCCTGATTCGCTTCTCCATCTGCTTGCATTCAACCCGGAGTCACCTAGTGCAG	8490 fluorescence intensity (a.u.)

Sequence	binding signal
ACCACTGCATAAATTCTCAACATATGCTTGTGTTTTTTTTCGGAGTCACCTAGTGCAG	8600 fluorescence intensity (a.u.)
CCCGGCGGTTCGCCCGCCCATCCGTCTGATCGGCATCGAACGGAGTCACCTAGTGCAG	8760 fluorescence intensity (a.u.)
TGCAAAACCTTGTTTGTGAATTGTCACTGCCTGTACGGGGCGGAGTCACCTAGTGCAG	9020 fluorescence intensity (a.u.)
CGTGGGGTTTTCTTGTTTCGGAGGTAGGGAGAGGTTTCGTCGGAGTCACCTAGTGCAG	11900 fluorescence intensity (a.u.)
TTCTATTACGTATCATCTATTTTGCACAACCCTTTAAAGTCGGAGTCACCTAGTGCAG	8690 fluorescence intensity (a.u.)
CCCTCTCGCGAGAACAACAGGGTACAACCTTACATTACTGCGGAGTCACCTAGTGCAG	8350 fluorescence intensity (a.u.)
TCCCTCTCGCCGGTCGCCGCCCTCGTCCCCGCCGCCGCCGCGGAGTCACCTAGTGCAG	14200 fluorescence intensity (a.u.)
CATCCCCGCGAGTCTCATGTATACATTTCACATATCAAACCGGAGTCACCTAGTGCAG	9810 fluorescence intensity (a.u.)
GATCTTTTTTCCTCCGATGGCCTCCGTGCAGCTGACCAGCCGGAGTCACCTAGTGCAG	9000 fluorescence intensity (a.u.)
GCAAGATGAATACAGGGTTCGGTTCCATTATGGTCATCCTCGGAGTCACCTAGTGCAG	8480 fluorescence intensity (a.u.)
GGCAAGGCGGCGGGTCTCCCGTTCTTGGATGGTCGTTGTTCGGAGTCACCTAGTGCAG	8400 fluorescence intensity (a.u.)
CCACCGCACTACTCCCGATCGGTCTCACGGATTTACCCGGCGGAGTCACCTAGTGCAG	9440 fluorescence intensity (a.u.)
ATATACTTTCCCTGTATCTGTGTATCATATTATGTGACTACGGAGTCACCTAGTGCAG	10900 fluorescence intensity (a.u.)
TTCTTGTCATTTTGTTGGGCTCCCTGTTCATCAAGATTATCGGAGTCACCTAGTGCAG	8140 fluorescence intensity (a.u.)
CATCACATCTCATACTTCGGTCGGTTCTGGGCAGGCTGAACGGAGTCACCTAGTGCAG	8280 fluorescence intensity (a.u.)
TCTCGTCTACTACTAGTACTAGCTTCTTCTCCTCCATTTCCGGAGTCACCTAGTGCAG	10800 fluorescence intensity (a.u.)
TGCAGCCCATGTTTTATCTGTTTTTTAGTGTGTTGGCCCACGGAGTCACCTAGTGCAG	8580 fluorescence intensity (a.u.)
CACTCTCTCTCGATCTCGTGCTCTCCTCCTTTCGCGAGCGCGGAGTCACCTAGTGCAG	11000 fluorescence intensity (a.u.)
CTGATACCTTGGTTGCTTTGTGGTTTTCCAAATATTCTTGCGGAGTCACCTAGTGCAG	10500 fluorescence intensity (a.u.)
TCTCCTGCCGCTGCTCGCCTCTCTCTCCGTGCGGAGGAGTCGGAGTCACCTAGTGCAG	8600 fluorescence intensity (a.u.)
TCACACCAGCGAGACAGACCACCGCGCCACGTCCGTCGCCCGGAGTCACCTAGTGCAG	8180 fluorescence intensity (a.u.)
